Record: PubChem BioAssay AID1224828 (NIAID, 2016)
Purpose: 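Knock-downs that increase or decrease LPS-induced p65 nuclear translocation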 (primary screen). Cell system: mouse RAW264.7 G9 macrophage reporter cells (GFP-p65, Tnf promoter-mCherry). Knock-down reagent: siRNA pool against mouse genes, 100 nM. Duration: 2 days siRNA transfection, then 40 min LPS before fixation. Treatment: LPS (Salmonella minnesota R595) at 10 ng/ml. Detection: 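Microscopy ratio of nuclear to perinuclear-ring GFP-p65 signal, scaled to the plate median; gene score is the average of two replicate robust z-scores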. Reading the numbers: p65 translocation robust z-score: higher = more nuclear NF-kappaB p65 after LPS than the plate median; nuclear/cytoplasmic p65 ratio: higher = more nuclear NF-kappaB p65. Active means: 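Active if robust z is above 3.3 (negative regulators) or below -1.56, the Tlr4 control median (positive regulators); activity score 50 or more; control wells not called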. Calls: active = hit (p65 shift raised or lowered); inactive = no clear change.
In all, the deposit lists about 17,000 reagents; shown is a part drawn at random. 762 of them (4.5%) count as active. 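Active calls include both raised and lowered p65 entry, mostly lowered; wells with fewer than 50 cells lack a z-score.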 Raw values are not corrected between plates. Reagent sequences are not shown.

The opening 3 records, to show the layout:
Target gene | p65 translocation robust z-score | nuclear/cytoplasmic p65 ratio, rep 1 | nuclear/cytoplasmic p65 ratio, rep 2 | low cell count flag | Call
Racgap1 (Rac GTPase-activating protein 1) | – | 1.05 | 1.02 | fewer than 50 cells per well; well left out of scoring | inactive
Smc1b (structural maintenance of chromosomes 1B) | – | 1.31 | 1.12 | fewer than 50 cells per well; well left out of scoring | inactive
Fxr1 (FMR1 autosomal homolog 1) | 0.47 | 1.52 | 1.41 | enough cells to score | inactive

Main list, repeating the preview:
Target gene | p65 translocation robust z-score | nuclear/cytoplasmic p65 ratio, rep 1 | nuclear/cytoplasmic p65 ratio, rep 2 | low cell count flag | Call
Racgap1 (Rac GTPase-activating protein 1) | – | 1.05 | 1.02 | fewer than 50 cells per well; well left out of scoring | inactive
Smc1b (structural maintenance of chromosomes 1B) | – | 1.31 | 1.12 | fewer than 50 cells per well; well left out of scoring | inactive
Fxr1 (FMR1 autosomal homolog 1) | 0.47 | 1.52 | 1.41 | enough cells to score | inactive
Vmn1r193 (vomeronasal 1 receptor 193) | 1.13 | 1.53 | 1.36 | enough cells to score | inactive
Gpr152 (G protein-coupled receptor 152) | -0.8 | 1.36 | 1.5 | enough cells to score | inactive
Riox2 (ribosomal oxygenase 2) | 0.97 | 1.83 | 1.72 | enough cells to score | inactive
Polr3k (polymerase (RNA) III (DNA directed) polypeptide K) | – | 1.33 | 1.15 | fewer than 50 cells per well; well left out of scoring | inactive
Cpsf2 (cleavage and polyadenylation specific factor 2) | – | 1.39 | 1.5 | fewer than 50 cells per well; well left out of scoring | inactive
Ghsr (growth hormone secretagogue receptor) | 0.84 | 1.68 | 1.65 | enough cells to score | inactive
Or8b54 (olfactory receptor family 8 subfamily B member 54) | 1.49 | 1.6 | 1.45 | enough cells to score | inactive
Or8k30 (olfactory receptor family 8 subfamily K member 30) | -1.01 | 1.54 | 1.4 | enough cells to score | inactive
Msx1 (msh homeobox 1) | -0.43 | 1.4 | 1.28 | enough cells to score | inactive
Ppp1cb (protein phosphatase 1 catalytic subunit beta) | 0.36 | 1.58 | 1.43 | enough cells to score | inactive
Dock7 (dedicator of cytokinesis 7) | – | 1.26 | 1.24 | fewer than 50 cells per well; well left out of scoring | inactive
Fam98a (family with sequence similarity 98, member A) | 1.55 | 1.37 | 1.67 | enough cells to score | inactive
Slc15a4 | 0.07 | 1.46 | 1.22 | enough cells to score | inactive
Agtr1a (angiotensin II receptor, type 1a) | -0.29 | 1.47 | 1.73 | enough cells to score | inactive
Cnga3 (cyclic nucleotide gated channel alpha 3) | -1.82 | 1.4 | 1.15 | enough cells to score | active
Duoxa1 (dual oxidase maturation factor 1) | 1.03 | 1.73 | 2.02 | enough cells to score | inactive
Pgrmc2 (progesterone receptor membrane component 2) | -0.41 | 1.41 | 1.39 | enough cells to score | inactive
Dmkn (dermokine) | 0.82 | 1.66 | 1.56 | enough cells to score | inactive
Snrnp48 (small nuclear ribonucleoprotein 48 (U11/U12)) | 2.53 | 1.77 | 1.89 | enough cells to score | inactive
Aknad1 (AKNA domain containing 1) | 0.1 | 1.4 | 1.19 | enough cells to score | inactive
Figla (folliculogenesis specific basic helix-loop-helix) | -1.05 | 1.39 | 1.36 | enough cells to score | inactive
Mbl2 (mannose-binding lectin (protein C) 2) | 0.91 | 1.56 | 1.46 | enough cells to score | inactive
Camkk1 (calcium/calmodulin-dependent protein kinase kinase 1, alpha) | 0.77 | 1.9 | 1.41 | enough cells to score | inactive
Gpr75 (G protein-coupled receptor 75) | -1.18 | 1.31 | 1.44 | enough cells to score | inactive
Tmem168 (transmembrane protein 168) | -0.06 | 1.49 | 1.46 | enough cells to score | inactive
Ybx3 (Y box protein 3) | 0.9 | 1.61 | 1.47 | enough cells to score | inactive
Vmn1r11 (vomeronasal 1 receptor 11) | 1.44 | 1.62 | 1.35 | enough cells to score | inactive
Or5d16 (olfactory receptor family 5 subfamily D member 16) | 0.19 | 1.75 | 1.56 | enough cells to score | inactive
Mup5 (major urinary protein 5) | 0.29 | 1.86 | 1.61 | enough cells to score | inactive
Etfa (electron transferring flavoprotein, alpha polypeptide) | 0.44 | 1.54 | 1.41 | enough cells to score | inactive
Or10j2 (olfactory receptor family 10 subfamily J member 2) | 0.47 | 1.57 | 1.67 | enough cells to score | inactive
Glp2r (glucagon-like peptide 2 receptor) | 0.08 | 1.53 | 1.58 | enough cells to score | inactive
Ang4 (angiogenin, ribonuclease A family, member 4) | 0.27 | 1.75 | 1.57 | enough cells to score | inactive
Fh1 (fumarate hydratase 1) | -0.12 | 1.36 | 1.41 | enough cells to score | inactive
Itpkc (inositol 1,4,5-trisphosphate 3-kinase C) | -0.58 | 1.52 | 1.3 | enough cells to score | inactive
Iyd (iodotyrosine deiodinase) | -0.03 | 1.52 | 1.46 | enough cells to score | inactive
Cd320 (CD320 antigen) | 0.99 | 1.3 | 1.47 | enough cells to score | inactive
Tspan31 (tetraspanin 31) | -0.79 | 1.46 | 1.35 | enough cells to score | inactive
Nptn (neuroplastin) | -0.41 | 1.33 | 1.2 | enough cells to score | inactive
Zfp68 (zinc finger protein 68) | – | 1.54 | 1.12 | fewer than 50 cells per well; well left out of scoring | inactive
Dpy19l3 (dpy-19 like C-mannosyltransferase 3) | 1 | 1.52 | 1.73 | enough cells to score | inactive
Abcb10 (ATP-binding cassette, sub-family B member 10) | -2.11 | 1.26 | 1.39 | enough cells to score | active
Mapt (microtubule-associated protein tau) | 0.79 | 1.6 | 1.39 | enough cells to score | inactive
Pcdhgb2 (protocadherin gamma subfamily B, 2) | -0.57 | 1.36 | 1.19 | enough cells to score | inactive
Polr1e (polymerase (RNA) I polypeptide E) | -0.22 | 1.38 | 1.24 | enough cells to score | inactive
Cep83os (centrosomal protein 83, opposite strand) | – | 1.52 | 1.25 | fewer than 50 cells per well; well left out of scoring | inactive
Chn1 (chimerin 1) | -0.28 | 1.42 | 1.88 | enough cells to score | inactive
Adam9 (ADAM metallopeptidase domain 9) | -0.42 | 1.69 | 1.27 | enough cells to score | inactive
Togaram2 (TOG array regulator of axonemal microtubules 2) | 2.79 | 1.5 | 1.69 | enough cells to score | inactive
Rnf31 (ring finger protein 31) | 2.28 | 1.76 | 1.44 | enough cells to score | inactive
H2bc6 (H2B clustered histone 6) | 1.36 | 1.74 | 1.62 | enough cells to score | inactive
Ralbp1 (ralA binding protein 1) | -0.2 | 1.63 | 1.35 | enough cells to score | inactive
Eme1 (essential meiotic structure-specific endonuclease 1) | 0.19 | 1.51 | 1.51 | enough cells to score | inactive
Nop10 (NOP10 ribonucleoprotein) | 0.53 | 1.88 | 1.53 | enough cells to score | inactive
Hbb-y (hemoglobin Y, beta-like embryonic chain) | 0.54 | 1.45 | 1.63 | enough cells to score | inactive
Slc60a2a | -1.87 | 1.38 | 1.34 | enough cells to score | active
Bcl2a1a (B cell leukemia/lymphoma 2 related protein A1a) | – | 1.3 | 1.43 | fewer than 50 cells per well; well left out of scoring | inactive
Itgb2l (integrin beta 2-like) | 1.24 | 1.74 | 1.59 | enough cells to score | inactive
Nts (neurotensin) | -0.89 | 1.34 | 1.29 | enough cells to score | inactive
Or6d14 (olfactory receptor family 6 subfamily D member 14) | -1.17 | 1.45 | 1.25 | enough cells to score | inactive
Pgrmc1 (progesterone receptor membrane component 1) | 0.21 | 1.52 | 1.44 | enough cells to score | inactive
1700129C05Rik (RIKEN cDNA 1700129C05 gene) | – | 1.28 | 1.89 | fewer than 50 cells per well; well left out of scoring | inactive
Aph1b (aph1 homolog B, gamma secretase subunit) | – | 1.04 | 1.45 | fewer than 50 cells per well; well left out of scoring | inactive
Jpt2 (Jupiter microtubule associated homolog 2) | -0.82 | 1.43 | 2.36 | enough cells to score | inactive
Or1ad6 (olfactory receptor family 1 subfamily AD member 6) | – | 1.43 | 0.857 | fewer than 50 cells per well; well left out of scoring | inactive
Phf6 (PHD finger protein 6) | 1.52 | 1.63 | 1.68 | enough cells to score | inactive
Prss48 (serine protease 48) | – | 2.02 | 1.63 | fewer than 50 cells per well; well left out of scoring | inactive
Or13j1 (olfactory receptor family 13 subfamily J member 1) | – | 1.65 | 1.5 | fewer than 50 cells per well; well left out of scoring | inactive
Mymk (myomaker, myoblast fusion factor) | – | 1.48 | 1.45 | fewer than 50 cells per well; well left out of scoring | inactive
Spam1 (sperm adhesion molecule 1) | -0.41 | 1.39 | 1.16 | enough cells to score | inactive
Fbxo16 (F-box protein 16) | 0.67 | 1.78 | 1.47 | enough cells to score | inactive
Cstf3 (cleavage stimulation factor, 3' pre-RNA, subunit 3) | 1.08 | 1.63 | 1.51 | enough cells to score | inactive
